Measured values: article PMC3378952 (International Journal for Parasitology, 2012)
Some peptides are written in HELM: one residue between dots, names in brackets for other building blocks, links after the first $. Where no end group is shown, it is not given here. The star is where a group is joined. Fmoc = O=C(OCC1c2ccccc2-c2ccccc21)*; Boc = CC(C)(C)OC(=O)*; tBu = CC(C)(C)*

Assay: general procedure: solution-phase peptide synthesis; EDCI, HOBt, DIEA
[1] = late stage modification step, HCl
[2] = late stage modification step, HCl salt

| Substance | step yield [1] [%] | step yield [2] [%] | also measured |
| --- | --- | --- | --- |
| K(Boc)IT(tBu)A-OMe | 96 |  |  |
| Fmoc-K(Boc)IT(tBu)A-OMe |  |  | step yield (coupling step, HCl): 61% |
| PEPTIDE1{[ac].K.I.T.A.[Abu-CO].[NH-cPr]}$$$$V2.0 |  | 95 |  |
| PEPTIDE1{[ac].K.I.T.A.[Ala-CO].[bAla]}$$$$V2.0 |  | 70 |  |
| (10S,13S,16S,19S)-10-acetamido-16-((R)-1-tert-butoxyethyl)-13-sec-butyl-2,2,19-trimethyl-4,11,14,17-tetraoxo-3-oxa-5,12,15,18-tetraazaicosan-20-oic acid | 88 |  |  |
